Data published in patent US20090088578A1, “NUCLEAR MAGNETIC RESONANCE IMAGING OF SELECTIVE SMALL MOLECULE DRUGS AS CONTRAST AGENTS” (priority 2007, published 2009).

Test: Frequency-selective saturation transfer MR imaging of chloroquine in phantoms (magnetic coupling to water protons)

CCN(CC)CCCC(C)Nc1ccnc2cc(Cl)ccc12 (centres unmarked) [Chloroquine, chloroquine]
concentration to which chloroquine coupling to free water was demonstrable (20% BSA cross-linked phantoms, single targeted saturation pulse train of 256 ms, saturation at 1.15 ppm, GE 4T): < 1 mM
chloroquine coupling to free water, dependence on macromolecules (phantoms with and without BSA): only seen in the presence of macromolecules (BSA)
